Assays:
Androgen receptor = Androgen receptor (Rattus norvegicus, UniProt P15207); note: in other assays of this panel Not Active means under 50% inhibition at 10 µM
[1] = biological target: 5-hydroxytryptamine receptor 2B (Homo sapiens, UniProt P41595); assay type: cell membranes, Membrane; conditions: cho-k1; note: in other assays of this panel Not Active means under 50% inhibition at 10 µM
Adenosine receptor A2a = Adenosine receptor A2a (Homo sapiens, UniProt P29274); assay: DRUGMATRIX: Adenosine A2A radioligand binding (ligand: […]); assay type: cell membranes, Membrane; conditions: hek293; Not Active = under 50% inhibition at 10 µM
[2] = biological target: Alpha-2C adrenergic receptor (Homo sapiens, UniProt P18825); assay: DRUGMATRIX: Adrenergic Alpha-2C radioligand binding (ligand: [3H] MK-912); assay type: cell membranes, Sf9, Membrane

The chains behind the UniProt entries cited, without tags or fusion partners.
UniProt P15207, whole entry S389L: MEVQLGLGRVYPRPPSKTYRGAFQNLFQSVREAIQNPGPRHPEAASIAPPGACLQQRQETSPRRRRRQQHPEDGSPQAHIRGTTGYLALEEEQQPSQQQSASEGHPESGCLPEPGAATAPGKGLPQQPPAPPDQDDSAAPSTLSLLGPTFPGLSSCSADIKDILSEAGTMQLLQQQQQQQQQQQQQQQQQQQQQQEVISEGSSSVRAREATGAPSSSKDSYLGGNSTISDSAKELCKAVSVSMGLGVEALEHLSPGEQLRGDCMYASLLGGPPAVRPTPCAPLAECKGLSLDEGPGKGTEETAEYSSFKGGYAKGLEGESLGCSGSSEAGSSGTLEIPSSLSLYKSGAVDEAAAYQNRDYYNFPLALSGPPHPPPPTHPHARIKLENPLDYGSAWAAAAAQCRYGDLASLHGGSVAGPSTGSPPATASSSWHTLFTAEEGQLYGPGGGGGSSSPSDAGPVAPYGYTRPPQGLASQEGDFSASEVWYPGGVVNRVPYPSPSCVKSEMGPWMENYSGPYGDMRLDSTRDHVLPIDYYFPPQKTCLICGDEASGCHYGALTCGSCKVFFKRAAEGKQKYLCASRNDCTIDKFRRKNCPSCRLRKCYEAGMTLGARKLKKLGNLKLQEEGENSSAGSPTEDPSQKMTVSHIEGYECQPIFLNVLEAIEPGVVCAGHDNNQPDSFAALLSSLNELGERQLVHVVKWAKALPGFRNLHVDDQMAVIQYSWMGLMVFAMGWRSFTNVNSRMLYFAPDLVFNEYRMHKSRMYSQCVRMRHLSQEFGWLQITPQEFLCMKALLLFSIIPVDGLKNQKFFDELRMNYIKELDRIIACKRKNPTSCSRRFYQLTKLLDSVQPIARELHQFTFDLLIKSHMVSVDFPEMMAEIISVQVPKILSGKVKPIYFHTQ
UniProt P41595, whole entry: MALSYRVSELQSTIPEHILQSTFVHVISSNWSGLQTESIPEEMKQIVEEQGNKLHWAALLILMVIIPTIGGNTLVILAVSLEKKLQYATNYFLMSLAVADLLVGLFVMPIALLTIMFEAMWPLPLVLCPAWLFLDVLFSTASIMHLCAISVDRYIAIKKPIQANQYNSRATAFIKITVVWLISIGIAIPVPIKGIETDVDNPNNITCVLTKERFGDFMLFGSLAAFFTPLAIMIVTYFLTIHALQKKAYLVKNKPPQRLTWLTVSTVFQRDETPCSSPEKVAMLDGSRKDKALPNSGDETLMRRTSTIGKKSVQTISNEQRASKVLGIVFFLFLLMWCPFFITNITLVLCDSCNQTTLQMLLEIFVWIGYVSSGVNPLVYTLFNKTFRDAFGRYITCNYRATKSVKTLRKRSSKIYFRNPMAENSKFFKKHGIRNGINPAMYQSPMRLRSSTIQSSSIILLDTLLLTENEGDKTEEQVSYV
UniProt P18825, whole entry: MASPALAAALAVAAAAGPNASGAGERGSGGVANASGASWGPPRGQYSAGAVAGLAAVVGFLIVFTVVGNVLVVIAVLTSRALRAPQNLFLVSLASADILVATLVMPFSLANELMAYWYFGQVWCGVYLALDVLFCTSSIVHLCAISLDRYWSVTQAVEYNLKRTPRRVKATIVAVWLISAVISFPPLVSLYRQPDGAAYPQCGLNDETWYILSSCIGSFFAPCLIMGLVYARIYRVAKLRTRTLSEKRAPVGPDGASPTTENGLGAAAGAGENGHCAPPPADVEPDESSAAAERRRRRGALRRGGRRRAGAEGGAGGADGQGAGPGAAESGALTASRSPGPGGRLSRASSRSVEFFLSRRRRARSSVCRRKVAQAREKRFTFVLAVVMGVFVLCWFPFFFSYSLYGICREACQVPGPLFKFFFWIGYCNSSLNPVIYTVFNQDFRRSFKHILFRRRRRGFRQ

Row | SMILES | IC50 (Androgen receptor) | IC50 [1] | IC50 (Adenosine receptor A2a) | IC50 [2] [nM] | Ki [2] [nM]
1 | CCCCCCCCc1ccc(O)cc1 [4-OCTYLPHENOL] | Not Active | Not Active |  |  | 
2 | CC(C)(C)c1ccc(C(=O)CCCN2CCC(OC(c3ccccc3)c3ccccc3)CC2)cc1 [EBASTINE] |  |  | Not Active | 276 | 40.1

— ChEMBL document CHEMBL1909046, “DrugMatrix in vitro pharmacology data”
